{
  "source": "paper PMC7862700",
  "note": "The other results are listed elsewhere or left out. The exact form of the protein is not confirmed.",
  "data": [
    {"molecular_target": "T1, ETV4 (UniProt P43268)", "T1 sequence": "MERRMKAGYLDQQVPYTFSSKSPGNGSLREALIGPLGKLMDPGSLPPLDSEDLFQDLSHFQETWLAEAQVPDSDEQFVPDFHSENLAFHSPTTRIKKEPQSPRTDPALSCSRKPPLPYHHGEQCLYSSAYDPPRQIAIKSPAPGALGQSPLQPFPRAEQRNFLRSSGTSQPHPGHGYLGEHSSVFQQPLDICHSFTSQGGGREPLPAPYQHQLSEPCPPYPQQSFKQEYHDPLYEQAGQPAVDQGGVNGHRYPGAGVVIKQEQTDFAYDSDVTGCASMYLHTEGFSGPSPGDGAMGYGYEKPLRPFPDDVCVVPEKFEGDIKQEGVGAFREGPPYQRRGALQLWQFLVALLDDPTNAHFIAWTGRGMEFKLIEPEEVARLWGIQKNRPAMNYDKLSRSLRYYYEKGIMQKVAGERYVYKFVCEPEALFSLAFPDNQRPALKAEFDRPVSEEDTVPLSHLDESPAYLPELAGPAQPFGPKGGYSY", "assay": "DAPPL (digital affinity profiling via proximity ligation, sequencing)", "conditions": "10 mM Tris-HCl pH 7.5, 50 mM NaCl, 1 mM DTT, 4% glycerol, room temperature, 30 min; GST-TFs on glutathione beads, 16-mer random dsDNA library, 0.1% …; high values mean tight binding; double strand, one strand shown; scale: fold enrichment (6-mer frequency, TF over GST control)", "values": [
      {"sequence": "TAACGG", "binding signal": 1.11},
      {"sequence": "AAGCAA", "binding signal": 1.02},
      {"sequence": "TATTTA", "binding signal": 1.34},
      {"sequence": "ACACAA", "binding signal": 1.15},
      {"sequence": "GTTCTC", "binding signal": 1.31},
      {"sequence": "ATGTGC", "binding signal": 1.11},
      {"sequence": "TCCGTA", "binding signal": 1.54},
      {"sequence": "ATGGCA", "binding signal": 1.24},
      {"sequence": "CTCAGC", "binding signal": 1.28},
      {"sequence": "TACTCC", "binding signal": 1.35},
      {"sequence": "ACAAAA", "binding signal": 1.16},
      {"sequence": "CCCCCT", "binding signal": 1.29},
      {"sequence": "CATTCG", "binding signal": 1.24},
      {"sequence": "CCCCTC", "binding signal": 1.36},
      {"sequence": "AAAGGG", "binding signal": 1.15},
      {"sequence": "GTGTTT", "binding signal": 1.1},
      {"sequence": "ACTGAT", "binding signal": 1.25},
      {"sequence": "GCCTAC", "binding signal": 1.23},
      {"sequence": "AGTGCT", "binding signal": 1.5},
      {"sequence": "TATATT", "binding signal": 1.36},
      {"sequence": "TACACT", "binding signal": 1.54},
      {"sequence": "AGCTAT", "binding signal": 1.16},
      {"sequence": "CTTAGC", "binding signal": 1.26},
      {"sequence": "CTACTG", "binding signal": 1.36},
      {"sequence": "TCTTTC", "binding signal": 1.34},
      {"sequence": "TATGTT", "binding signal": 1.23},
      {"sequence": "AATGAA", "binding signal": 1.15},
      {"sequence": "AAGCTG", "binding signal": 1.12},
      {"sequence": "ACGACA", "binding signal": 1.15},
      {"sequence": "TAAATG", "binding signal": 1.31},
      {"sequence": "ACCCCT", "binding signal": 1.05},
      {"sequence": "TCCGGT", "binding signal": 4.4},
      {"sequence": "AAGATC", "binding signal": 1},
      {"sequence": "AATCTA", "binding signal": 1.1},
      {"sequence": "CCCCTG", "binding signal": 1.26},
      {"sequence": "CTGTTG", "binding signal": 1.04},
      {"sequence": "GCGACC", "binding signal": 1.13},
      {"sequence": "TGATGA", "binding signal": 1.28},
      {"sequence": "TCATCC", "binding signal": 1.43},
      {"sequence": "CCCTGC", "binding signal": 1.1}
    ]}
  ]
}
